Laboratory results as given in publication PMC5829499.
Results are given in words; binding and its absence hold for the method and conditions named. Binding seen in cells or lysates may run through a third protein. Some binding calls cover weakened binding; strength is not graded here. For part of these data: Where a sequence is shown, tags or fusion partners need not be part of it. Values belong to the molecule of their own block, whether it stands above or below them.

Chains of the proteins cited; added tags and fusions are not shown.
UniProt P42582: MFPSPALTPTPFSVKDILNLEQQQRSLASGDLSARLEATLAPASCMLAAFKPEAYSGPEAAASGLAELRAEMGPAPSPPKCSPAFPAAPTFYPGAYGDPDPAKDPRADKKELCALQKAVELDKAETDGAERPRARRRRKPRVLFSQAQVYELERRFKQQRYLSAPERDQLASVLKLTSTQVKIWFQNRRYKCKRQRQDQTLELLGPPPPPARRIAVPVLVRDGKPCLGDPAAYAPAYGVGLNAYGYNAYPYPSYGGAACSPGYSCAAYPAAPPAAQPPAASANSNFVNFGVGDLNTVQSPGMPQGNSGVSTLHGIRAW
UniProt Q8VIM5: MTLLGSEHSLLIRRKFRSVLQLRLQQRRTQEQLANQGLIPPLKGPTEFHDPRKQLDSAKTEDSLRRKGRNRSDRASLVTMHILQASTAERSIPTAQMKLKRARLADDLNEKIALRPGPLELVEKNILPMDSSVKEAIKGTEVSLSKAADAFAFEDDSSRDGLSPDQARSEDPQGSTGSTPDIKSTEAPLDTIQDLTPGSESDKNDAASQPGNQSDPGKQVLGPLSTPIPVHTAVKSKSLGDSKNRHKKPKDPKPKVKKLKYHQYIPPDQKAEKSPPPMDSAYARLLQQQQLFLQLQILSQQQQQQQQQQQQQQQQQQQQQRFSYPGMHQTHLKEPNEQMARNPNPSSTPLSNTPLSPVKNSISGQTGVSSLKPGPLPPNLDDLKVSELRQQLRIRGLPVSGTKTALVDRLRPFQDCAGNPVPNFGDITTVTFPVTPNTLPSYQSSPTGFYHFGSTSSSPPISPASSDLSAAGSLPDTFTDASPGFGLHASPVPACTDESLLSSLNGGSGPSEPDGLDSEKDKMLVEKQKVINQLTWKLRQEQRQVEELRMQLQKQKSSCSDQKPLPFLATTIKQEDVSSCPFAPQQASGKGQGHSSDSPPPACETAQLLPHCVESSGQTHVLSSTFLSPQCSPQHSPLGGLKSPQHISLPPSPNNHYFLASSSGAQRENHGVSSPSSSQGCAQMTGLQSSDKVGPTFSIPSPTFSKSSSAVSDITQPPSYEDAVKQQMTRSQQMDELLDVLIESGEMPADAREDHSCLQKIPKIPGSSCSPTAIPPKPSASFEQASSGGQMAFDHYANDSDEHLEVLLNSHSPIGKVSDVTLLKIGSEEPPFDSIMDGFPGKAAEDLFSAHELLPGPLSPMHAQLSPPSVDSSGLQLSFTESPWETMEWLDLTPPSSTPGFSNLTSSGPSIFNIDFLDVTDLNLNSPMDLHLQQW

What was measured:
GST-fused BAF60c = GST-fused BAF60c (UniProt Q6P9Z1); assay: pull-down; GST fusion on glutathione Sepharose 4B beads incubated with 35S-labeled in vitro translated protein overnight at 4°C, washed with PBST three times; SDS-PAGE and autoradiography; only the target purified
GST-fused BAF60c, Q6P9Z1 = target: T1, GST-fused BAF60c, Q6P9Z1; assay: as above; conditions: remark: other sources report otherwise
T1 chain: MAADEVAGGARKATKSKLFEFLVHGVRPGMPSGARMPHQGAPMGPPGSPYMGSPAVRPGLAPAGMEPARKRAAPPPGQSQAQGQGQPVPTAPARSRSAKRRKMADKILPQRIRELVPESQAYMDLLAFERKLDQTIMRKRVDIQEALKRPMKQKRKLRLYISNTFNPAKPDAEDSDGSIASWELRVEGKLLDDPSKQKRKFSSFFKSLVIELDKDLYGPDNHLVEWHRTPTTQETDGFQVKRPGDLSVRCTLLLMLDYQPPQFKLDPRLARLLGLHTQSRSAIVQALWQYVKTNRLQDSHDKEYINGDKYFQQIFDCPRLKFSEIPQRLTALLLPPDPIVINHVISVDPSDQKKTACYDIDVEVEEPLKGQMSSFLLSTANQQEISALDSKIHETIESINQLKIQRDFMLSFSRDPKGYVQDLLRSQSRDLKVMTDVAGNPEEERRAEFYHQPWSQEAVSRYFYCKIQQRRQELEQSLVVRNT

binding (GST-fused BAF60c): binds
Molecule: 35S-labeled, in-vitro synthesized NKX2-5 (from UniProt P42582 1-318)

binding (GST-fused BAF60c): binds
Molecule: full-length Myocardin, in vitro synthesized (from UniProt Q8VIM5 1-935)

binding (GST-fused BAF60c, Q6P9Z1): binds
B1: 35S-labeled, in-vitro synthesized TBX5, P70326 1-518 (protein)
chain: MADTDEGFGLARTPLEPDSKDRSCDSKPESALGAPSKSPSSPQAAFTQQGMEGIKVFLHERELWLKFHEVGTEMIITKAGRRMFPSYKVKVTGLNPKTKYILLMDIVPADDHRYKFADNKWSVTGKAEPAMPGRLYVHPDSPATGAHWMRQLVSFQKLKLTNNHLDPFGHIILNSMHKYQPRLHIVKADENNGFGSKNTAFCTHVFPETAFIAVTSYQNHKITQLKIENNPFAKGFRGSDDLELHRMSRMQSKEYPVVPRSTVRHKVTSNHSPFSSETRALSTSSNLGSQYQCENGVSGPSQDLLPPPNPYPLAQEHSQIYHCTKRKDEECSSTEHPYKKPYMETSPSEEDTFYRSGYPQQQGLSTSYRTESAQRQACMYASSAPPSEPVPSLEDISCNTWPSMPSYSSCTVTTVQPMDRLPYQHFSAHFTSGPLVPRLAGMANHGSPQLGEGMFQHQTSVAHQPVVRQCGPQTGLQSPGGLQPPEFLYTHGVPRTLSPHQYHSVHGVGMVPEWSENS
modifications: here or on the partner: 35S methionine label
